Test results reported in US20160159929A1.
Results are given in words; binding and its absence hold for the method and conditions named. Some results given as binding are weak or reduced against the parent protein; the word gives no strength.

Amino acid sequences for entries named in this document (tags omitted). A change or cut given only in a name is not applied to a line headed by its entry. Chains listed by the source or under a name are the forms on record and can include a tag or linker.
human DLL4 (27-251)-Fc alanine substitution mutant at position 69 (valine) (Q9NR61, form named): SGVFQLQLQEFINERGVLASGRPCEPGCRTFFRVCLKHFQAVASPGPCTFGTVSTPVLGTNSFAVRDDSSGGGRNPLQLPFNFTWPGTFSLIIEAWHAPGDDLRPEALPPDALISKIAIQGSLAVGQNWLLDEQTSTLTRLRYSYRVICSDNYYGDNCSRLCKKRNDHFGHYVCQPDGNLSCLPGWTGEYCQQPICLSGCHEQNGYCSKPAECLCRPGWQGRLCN

Molecular target: human DLL4 (27-251)-Fc alanine substitution mutant at position 69 (valine) (human) (UniProt Q9NR61)
Assay: Western blot of mutant DLL4 (27-251)-Fc with MLCK2 antibody (1 ug/mL), HRP anti-human Fab

B1: MLCK-2 anti-DLL4 antibody (antibody, V domains shown)
VH: EVQLLESGGGLVQPGGSLRLSCAASGFTFSDYAMSWVRQAPGKCLEWVSWIYSGSGNKYYADSVKGRFTISRDNSKNTLYLQMNSLRAEDTAVYYCARADWPFDYWGQGTLVTVSS
VL: QSVLTQPPSASGTPGQRVTISCTGSSSNIGSNDVTWYQQLPGTAPKLLIYADSKRPSGVPDRFSGSKSGTSASLAISGLRSEDEADYYCGTWDYSLSAYVFGCGTKLTVL
binding: binds
